One substance from paper PMC4906230 can be followed below.

Amino acid sequences for entries named in this document (tags omitted). A change or cut given only in a name is not applied to a line headed by its entry.
UniProt P31431: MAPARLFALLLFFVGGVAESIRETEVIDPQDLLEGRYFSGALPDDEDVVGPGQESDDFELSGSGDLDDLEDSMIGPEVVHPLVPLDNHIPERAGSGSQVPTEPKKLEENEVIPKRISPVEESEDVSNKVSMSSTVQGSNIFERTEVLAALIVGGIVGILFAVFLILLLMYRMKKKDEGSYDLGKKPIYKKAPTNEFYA
UniProt O95786: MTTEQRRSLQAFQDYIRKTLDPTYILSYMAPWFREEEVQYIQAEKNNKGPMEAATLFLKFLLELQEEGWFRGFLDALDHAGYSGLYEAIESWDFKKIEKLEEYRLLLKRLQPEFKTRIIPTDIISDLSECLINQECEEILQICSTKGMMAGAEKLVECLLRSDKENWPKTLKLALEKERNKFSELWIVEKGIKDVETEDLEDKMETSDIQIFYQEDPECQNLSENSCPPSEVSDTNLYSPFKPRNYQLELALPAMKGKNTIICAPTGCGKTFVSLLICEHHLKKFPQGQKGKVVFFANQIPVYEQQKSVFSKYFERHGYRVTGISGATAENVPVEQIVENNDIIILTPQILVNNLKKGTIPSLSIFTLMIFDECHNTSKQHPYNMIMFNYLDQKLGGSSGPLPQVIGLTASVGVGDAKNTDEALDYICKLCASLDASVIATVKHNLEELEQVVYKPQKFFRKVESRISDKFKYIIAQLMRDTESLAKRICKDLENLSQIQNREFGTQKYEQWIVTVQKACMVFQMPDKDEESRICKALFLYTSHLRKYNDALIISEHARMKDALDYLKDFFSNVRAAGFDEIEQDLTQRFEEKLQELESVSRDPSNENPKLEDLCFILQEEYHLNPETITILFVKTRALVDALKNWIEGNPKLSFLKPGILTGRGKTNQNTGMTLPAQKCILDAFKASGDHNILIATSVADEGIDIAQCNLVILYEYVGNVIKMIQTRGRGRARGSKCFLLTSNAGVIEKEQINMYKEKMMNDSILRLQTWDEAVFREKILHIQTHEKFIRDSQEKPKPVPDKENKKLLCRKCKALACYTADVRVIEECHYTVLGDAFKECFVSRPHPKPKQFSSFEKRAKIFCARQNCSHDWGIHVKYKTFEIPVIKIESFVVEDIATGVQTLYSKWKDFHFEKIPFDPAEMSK

For this assay, the target named is SDC4ΔTM (SDC4 with the transmembrane domain deleted) (human) (UniProt P31431). The assay is described as follows: co-IP; HEK293 cells transfected with epitope-tagged expression plasmids, lysed 24 h later; lysates immunoprecipitated with anti-Myc or anti-Flag beads and immunoblotted; in Fig. 7f,g with SDC4 overexpressed or knocked down by siRNA. For orientation: A western blot detects proteins with antibodies after separation by electrophoresis.

Results are given in words; binding and its absence hold for the method and conditions named. Binding seen in cells or lysates may run through a third protein. A result given as binding can be weak or reduced; the word gives no strength.

With “RIG-I, transfected, construct not told for the experiment (from UniProt O95786 1-925)”, the binding result is on record as “binds”.
